{"source": "PubChem BioAssay AID1508588 (Peter MacCallum Cancer Centre, 2020)", "purpose": "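Genome-wide search for knock-downs that heighten vemurafenib action in melanoma cells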 (primary screen)", "cells": "human WM266.4 melanoma cells (BRAF V600 mutant)", "reagent": "siRNA pool against human genes, 40 nM", "time to read-out": "96 h from transfection to read-out", "conditions": "vemurafenib 300 nM (about IC25), added 48 h after transfection, for 48 h; comparison arm got DMSO vehicle only", "measured": "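Ratios to non-targeting siRNA for cell gain, counted as DAPI nuclei after minus before drug and averaged over two replicates, and for absorbance-read medium lactate per cell; both binned into fold-change classes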", "reading the numbers": "cell gain with vemurafenib: higher = more cell gain than with non-targeting siRNA; lactate per cell with vemurafenib: higher = more lactate made per cell", "rule for the call": "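Enhancement is called by pairing each knock-down's vehicle-arm and drug-arm fold-change classes for viability or glycolysis; which class combinations qualify is not given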", "calls": "active = enhances vemurafenib effect; inactive = no enhancement seen", "note": "Here is a random part of about 18,000 deposited reagents. In the full data, 790 (4.4%) are marked active. 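Calls rest on a combination of fold-change classes in drug and vehicle arms, not all shown here.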 Some reagents were tested in more than one well and are listed for each. Reagent sequences are not shown."}
{"gene knocked down": "SLC25A18", "cell gain with vemurafenib": 0.62, "lactate per cell with vemurafenib": 1.43, "activity call": "inactive"}
{"gene knocked down": "ANKRD16 (ankyrin repeat domain 16)", "cell gain with vemurafenib": 0.18, "lactate per cell with vemurafenib": 2.36, "activity call": "inactive"}
{"gene knocked down": "PPTC7 (protein phosphatase targeting COQ7)", "cell gain with vemurafenib": 0.57, "lactate per cell with vemurafenib": 1.22, "activity call": "inactive"}
{"gene knocked down": "C6orf118 (chromosome 6 open reading frame 118)", "cell gain with vemurafenib": 0.39, "lactate per cell with vemurafenib": 0.59, "activity call": "inactive"}
{"gene knocked down": "PDK2 (pyruvate dehydrogenase kinase 2)", "cell gain with vemurafenib": 0.55, "lactate per cell with vemurafenib": 0.97, "activity call": "inactive"}
{"gene knocked down": "SCAND1 (SCAN domain containing 1)", "cell gain with vemurafenib": 1.13, "lactate per cell with vemurafenib": 0.62, "activity call": "inactive"}
{"gene knocked down": "SSX7 (SSX family member 7)", "cell gain with vemurafenib": 0.37, "lactate per cell with vemurafenib": 2.38, "activity call": "inactive"}
{"gene knocked down": "SBNO1 (strawberry notch homolog 1)", "cell gain with vemurafenib": 0.42, "lactate per cell with vemurafenib": 1.52, "activity call": "inactive"}
{"gene knocked down": "LRP1 (LDL receptor related protein 1)", "cell gain with vemurafenib": 0.35, "lactate per cell with vemurafenib": 1.48, "activity call": "inactive"}
{"gene knocked down": "SLC9C2", "cell gain with vemurafenib": 0.63, "lactate per cell with vemurafenib": 0.78, "activity call": "inactive"}
{"gene knocked down": "NKIRAS1 (NFKB inhibitor interacting Ras like 1)", "cell gain with vemurafenib": 0.66, "lactate per cell with vemurafenib": 0.91, "activity call": "inactive"}
{"gene knocked down": "PDPR (pyruvate dehydrogenase phosphatase regulatory subunit)", "cell gain with vemurafenib": 0.35, "lactate per cell with vemurafenib": 1.64, "activity call": "inactive"}
{"gene knocked down": "PRR30 (proline rich 30)", "cell gain with vemurafenib": 0.41, "lactate per cell with vemurafenib": 0.3, "activity call": "active"}
{"gene knocked down": "KDM2B (lysine demethylase 2B)", "cell gain with vemurafenib": 0.49, "lactate per cell with vemurafenib": 0.78, "activity call": "inactive"}
{"gene knocked down": "ARHGAP44 (Rho GTPase activating protein 44)", "cell gain with vemurafenib": 0.62, "lactate per cell with vemurafenib": 0.72, "activity call": "inactive"}
{"gene knocked down": "KCNU1 (potassium calcium-activated channel subfamily U member 1)", "cell gain with vemurafenib": 0.74, "lactate per cell with vemurafenib": 1.08, "activity call": "inactive"}
{"gene knocked down": "TWSG1 (twisted gastrulation BMP signaling modulator 1)", "cell gain with vemurafenib": 0.67, "lactate per cell with vemurafenib": 0.88, "activity call": "inactive"}
{"gene knocked down": "LARS2 (leucyl-tRNA synthetase 2, mitochondrial)", "cell gain with vemurafenib": 0.65, "lactate per cell with vemurafenib": 0.62, "activity call": "inactive"}
{"gene knocked down": "C5AR2 (complement C5a receptor 2)", "cell gain with vemurafenib": 0.37, "lactate per cell with vemurafenib": 1.27, "activity call": "inactive"}
{"gene knocked down": "IGF2BP3 (insulin like growth factor 2 mRNA binding protein 3)", "cell gain with vemurafenib": 0.68, "lactate per cell with vemurafenib": 0.38, "activity call": "inactive"}
{"gene knocked down": "ZNF507 (zinc finger protein 507)", "cell gain with vemurafenib": 1.36, "lactate per cell with vemurafenib": 0.1, "activity call": "inactive"}
{"gene knocked down": "COQ9 (coenzyme Q9)", "cell gain with vemurafenib": 0.64, "lactate per cell with vemurafenib": 0.61, "activity call": "inactive"}
{"gene knocked down": "DNAH6 (dynein axonemal heavy chain 6)", "cell gain with vemurafenib": 0.54, "lactate per cell with vemurafenib": 1.65, "activity call": "inactive"}
{"gene knocked down": "INPP5F (inositol polyphosphate-5-phosphatase F)", "cell gain with vemurafenib": 0.62, "lactate per cell with vemurafenib": 0.86, "activity call": "inactive"}
{"gene knocked down": "PTGS1 (prostaglandin-endoperoxide synthase 1)", "cell gain with vemurafenib": 0.23, "lactate per cell with vemurafenib": 0.84, "activity call": "inactive"}
{"gene knocked down": "RAD18 (RAD18 E3 ubiquitin protein ligase)", "cell gain with vemurafenib": 0.96, "lactate per cell with vemurafenib": 0.82, "activity call": "inactive"}
{"gene knocked down": "ODAD2 (outer dynein arm docking complex subunit 2)", "cell gain with vemurafenib": 0.97, "lactate per cell with vemurafenib": 0.94, "activity call": "inactive"}
{"gene knocked down": "LVRN (laeverin)", "cell gain with vemurafenib": 0.42, "lactate per cell with vemurafenib": 1.22, "activity call": "inactive"}
{"gene knocked down": "LVRN (laeverin)", "cell gain with vemurafenib": 0.29, "lactate per cell with vemurafenib": 1.07, "activity call": "inactive"}
{"gene knocked down": "EXPH5 (exophilin 5)", "cell gain with vemurafenib": 0.42, "lactate per cell with vemurafenib": 1.56, "activity call": "inactive"}
{"gene knocked down": "CERCAM (cerebral endothelial cell adhesion molecule)", "cell gain with vemurafenib": 0.99, "lactate per cell with vemurafenib": 0.76, "activity call": "inactive"}
{"gene knocked down": "MTRES1 (mitochondrial transcription rescue factor 1)", "cell gain with vemurafenib": 0.88, "lactate per cell with vemurafenib": 0.24, "activity call": "inactive"}
{"gene knocked down": "DMAC2 (distal membrane arm assembly component 2)", "cell gain with vemurafenib": 0.47, "lactate per cell with vemurafenib": 1.02, "activity call": "inactive"}
{"gene knocked down": "FHOD1 (formin homology 2 domain containing 1)", "cell gain with vemurafenib": 0.68, "lactate per cell with vemurafenib": 0.99, "activity call": "inactive"}
{"gene knocked down": "PARPBP (PARP1 binding protein)", "cell gain with vemurafenib": 0.87, "lactate per cell with vemurafenib": 0.78, "activity call": "inactive"}
{"gene knocked down": "ALOX15 (arachidonate 15-lipoxygenase)", "cell gain with vemurafenib": 0.54, "lactate per cell with vemurafenib": 1.4, "activity call": "inactive"}
{"gene knocked down": "RCN3 (reticulocalbin 3)", "cell gain with vemurafenib": 0.16, "lactate per cell with vemurafenib": 1.43, "activity call": "inactive"}
{"gene knocked down": "LGALS14 (galectin 14)", "cell gain with vemurafenib": 0.36, "lactate per cell with vemurafenib": 1.94, "activity call": "inactive"}
{"gene knocked down": "FERMT3 (FERM domain containing kindlin 3)", "cell gain with vemurafenib": 0.48, "lactate per cell with vemurafenib": 1.43, "activity call": "inactive"}
{"gene knocked down": "ELOVL2 (ELOVL fatty acid elongase 2)", "cell gain with vemurafenib": 0.56, "lactate per cell with vemurafenib": 1, "activity call": "inactive"}
{"gene knocked down": "KANSL1 (KAT8 regulatory NSL complex subunit 1)", "cell gain with vemurafenib": 0.04, "lactate per cell with vemurafenib": 2.25, "activity call": "inactive"}
{"gene knocked down": "CTSO (cathepsin O)", "cell gain with vemurafenib": 0.81, "lactate per cell with vemurafenib": 0.57, "activity call": "inactive"}
{"gene knocked down": "HOXD11 (homeobox D11)", "cell gain with vemurafenib": 0.02, "lactate per cell with vemurafenib": 2.69, "activity call": "inactive"}
{"gene knocked down": "STK32B (serine/threonine kinase 32B)", "cell gain with vemurafenib": 0.58, "lactate per cell with vemurafenib": 1.23, "activity call": "inactive"}
{"gene knocked down": "SLC7A11", "cell gain with vemurafenib": 0.69, "lactate per cell with vemurafenib": 0.99, "activity call": "inactive"}
{"gene knocked down": "OR2A25 (olfactory receptor family 2 subfamily A member 25)", "cell gain with vemurafenib": 0.67, "lactate per cell with vemurafenib": 1.09, "activity call": "inactive"}
{"gene knocked down": "PNOC (prepronociceptin)", "cell gain with vemurafenib": 0.69, "lactate per cell with vemurafenib": 1.03, "activity call": "inactive"}
{"gene knocked down": "SCGB3A2 (secretoglobin family 3A member 2)", "cell gain with vemurafenib": 0.7, "lactate per cell with vemurafenib": 0.43, "activity call": "inactive"}
{"gene knocked down": "SLC30A4", "cell gain with vemurafenib": 0.41, "lactate per cell with vemurafenib": 0.88, "activity call": "inactive"}
{"gene knocked down": "ANKRD39 (ankyrin repeat domain 39)", "cell gain with vemurafenib": 0.61, "lactate per cell with vemurafenib": 1.93, "activity call": "inactive"}
{"gene knocked down": "BOLL (boule RNA binding protein)", "cell gain with vemurafenib": 0.47, "lactate per cell with vemurafenib": 0.83, "activity call": "inactive"}
{"gene knocked down": "H2BC11 (H2B clustered histone 11)", "cell gain with vemurafenib": 0.72, "lactate per cell with vemurafenib": 0.92, "activity call": "inactive"}
